Data on 41 molecules can be found in PubChem BioAssay AID2685 (National Center for Advancing Translational Sciences (NCATS), 2010).

A short description of the test: qHTS Assay for Lipid Storage Modulators in Drosophila S3 Cells.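 For cell number change: cells counted by Cell Tracker Red CMTPX staining in the red channel.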 The following applies: BODIPY lipid droplet fluorescence, 18-24 h; for cell number change: measured here: cell count max response, cells fed with added oleic acid. Summed up:
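Drosophila S3 cells got compounds at several concentrations plus oleic acid (400 uM solution). Laser-scanning cytometry with 488 nm excitation read lipid droplets at 500-530 nm and cells at 575-640 nm. Percent activity was relative to 20 uM Triacsin C.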
For orientation: qHTS replaces the single test concentration by a dilution series.

The mark [1] stands for this setting: measured here: lipid fluorescence (Fed channel) AC50, cells fed with added oleic acid.
The mark [2] stands for this setting: measured here: cell number channel AC50, cells fed with added oleic acid.

Molecules are shown by their SMILES. This is one part of the list. Shown are side measurements of this screen, not its main read-out; they come without a call. Most of these compounds were active or inconclusive in the main read-out, so they are no random draw. Potencies come from curve fits of mixed quality, noted in brackets.

For the molecule `N#CC(C#N)=C(N)Nc1cccc(Cl)c1`, the cell number change is -17.3%.
For the molecule `O=C(O)c1ccccc1-c1ccccc1C(=O)Nc1ccccc1-c1ccccc1`, the cell number change was -10.8%. The AC50 under setting [1] is 5.8 µM [rising, full curve].
For `COC(=O)c1ccccc1NC(=O)N1CCCC1`, the cell number change worked out at 10.2%.
In the case of `O=C(N/N=C/c1ccccc1F)NC12CC3CC(CC(C3)C1)C2`, the cell number change is -20.6%. Moreover, the AC50 under setting [1] was 0.00461 µM [falling, full curve, poor fit].
In the case of `Cc1ccc(C(=O)NC(C)c2ccc(F)cc2)cc1` (configuration not stated), the cell number change came to 21.2%. Under setting [1], the AC50 was 0.461 µM [rising, full curve, poor fit].
As for `O=C(c1ccc([N+](=O)[O-])s1)N1CCc2ccccc21`, the cell number change is 2.86%. Also, under setting [2], the AC50 is 0.0731 µM [rising, full curve, poor fit].
In the case of `NC(=O)c1c(NC(=O)c2cccnc2)sc2c1CCCC2`, the cell number change was -0.902%. Moreover, the AC50 under setting [2] was 1.16 µM [rising, full curve, poor fit].
In the case of `COC(=O)C(CC(C)C)NC(=O)c1ccc([N+](=O)[O-])c(C)c1` (configuration not stated), the cell number change was -15.1%. Besides, the AC50 under setting [1] was 29.1 µM [falling, single point].
Take `Cc1ccnc(N/C=C(\C#N)c2nc(-c3cccc(Br)c3)cs2)c1`: the cell number change stood at 35.2%. Besides, the AC50 under setting [2] was 0.731 µM [rising, full curve]. The AC50 under setting [1] is 1.3 µM [rising, partial curve].
`COc1ccc2c(c1)CCc1c(C(=O)N3CCCc4ccccc43)noc1-2`: the cell number change was found to be 93.6%. Further, the AC50 under setting [2] was 13 µM [rising, partial curve]. Also, under setting [1], the AC50 is 29.1 µM [rising, single point].
Turning to `COc1ccc2nc(N3CCOCC3)cc(C)c2c1`, the cell number change is 19.4%. In addition, the AC50 under setting [1] was 2.06 µM [falling, partial curve].
With `CCCC(CCC(=O)OC)(C(=O)OCC)c1csc(N)n1` (configuration not stated), the cell number change stood at 2.62%.
`COc1cc(-c2nc(-c3ccc(Br)o3)no2)cc(OC)c1OC`: the cell number change was -24.3%. Besides, under setting [1], the AC50 is 4.61 µM [rising, partial curve].
Consider `O=C(O)CC1NC(=O)N(c2ccccc2)C1=O` (configuration not stated), for which the cell number change was -13.2%. The AC50 under setting [1] was 18.4 µM [falling, single point].
For `C=CCN1CN(S(=O)(=O)c2cccc(Cl)c2)c2nc3ccccc3nc21`, the cell number change stood at 4.58%. Also, the AC50 under setting [1] was 0.461 µM [rising, partial curve, poor fit].
For the molecule `CC(=O)N(Cc1ccc(F)cc1)C1=C(NCc2ccccc2)C(=O)c2ccccc2C1=O`, the cell number change was -23.1%. The AC50 under setting [1] was 20.6 µM [falling, single point].
As to `Nc1ccc(C(=O)OCC(=O)NC(=O)c2ccccc2)cc1[N+](=O)[O-]`, the cell number change was found to be 0.5%.
Take `O=C(CCC(=O)N(CC(=O)NC1CCCC1)Cc1ccc2c(c1)OCO2)Nc1nccs1`: the cell number change stood at 12.9%. Further, the AC50 under setting [1] was 4.61 µM [rising, partial curve].
As for `O=C(c1ccccc1)N1CCN(CCc2ccccc2)CC1`, the cell number change is 13.5%. Further, the AC50 under setting [1] was 0.651 µM [rising, partial curve, poor fit].
For `COc1cc(/C=N/NC(=O)c2ccccc2O)ccc1OC(=O)CC1SC(=O)NC1=O` (configuration not stated), the cell number change is -14.4%. For the same molecule, the AC50 under setting [1] is 29.1 µM [falling, single point].
Turning to `Cc1ccc(CNc2ccc3c(c2)OCO3)c(C)c1`, the cell number change is -38.6%. The AC50 under setting [2] was 32.6 µM [falling, single point]. Moreover, the AC50 under setting [1] was 18.4 µM [falling, partial curve].
Turning to `O=C1c2cccc3c([N+](=O)[O-])ccc(c23)C(=O)N1Cc1cccnc1`, the cell number change was -81.2%. Moreover, the AC50 under setting [2] is 18.4 µM [falling, single point]. Moreover, under setting [1], the AC50 was 20.6 µM [falling, single point].
With `Cc1cc(C)cc(NC(=O)Nc2cnccn2)c1`, the cell number change is 2.6%.
In the case of `CCOC(=O)c1oc2cc(C)cc(O)c2c(=O)c1-c1csc(C)n1`, the cell number change was 35%. Besides, the AC50 under setting [2] was 29.1 µM [rising, single point].
Turning to `Cc1oc2c(c1C(=O)NCCCC(=O)O)CCCC2`, the cell number change was -77%. Under setting [2], the AC50 is 20.6 µM [falling, single point].
Turning to `COc1ccc(C(OCC(O)CNC(C)c2ccccc2)c2ccc(OC)cc2)cc1` (configuration not stated), the cell number change was found to be 9.27%.
As to `CC1(C)C(=O)N(OCc2ccccc2)C(C)(C)C(=O)N1OCc1ccccc1`, the cell number change came out at 100%. Moreover, the half-maximal activity concentration (AC50) under setting [2] is 9.2 µM [rising, partial curve]. Moreover, the AC50 under setting [1] is 14.6 µM [rising, partial curve].
As for `CCOC(=O)N1CCN(C(=O)CSCc2ccccc2)CC1`, the cell number change stood at 8.41%. Also, the AC50 under setting [2] is 5.17 µM [rising, single point].
Regarding `CCCCN(C)C(=O)C1CCN(Cc2cccc(OCc3ccccc3)c2)CC1`, the cell number change is -29.4%.
In the case of `COc1ccccc1-n1cnc2cc(C(=O)NCC3CCCO3)ccc21` (configuration not stated), the cell number change came to 0.879%. For the same molecule, the AC50 under setting [1] is 11.6 µM [rising, partial curve].
`O=C(c1ccc2c(c1)OCO2)N(c1ccc(Br)cc1)C1C=CS(=O)(=O)C1` (configuration not stated): the cell number change is -14.4%.
For the molecule `COc1ccc(CCNC(=O)CSc2nc3cc(Cl)ccc3o2)cc1OC`, the cell number change is -68.4%. The AC50 under setting [2] was 18.4 µM [falling, partial curve]. Besides, the concentration at half-maximal activity (AC50) under setting [1] is 9.2 µM [falling, partial curve].
Take `CCSC1=N/C(=C\c2ccccc2)C(=O)N1`: under setting [1], the AC50 is 29.1 µM [rising, single point].
Regarding `COc1ccc(C(=O)NC(=O)NC2(C(Cl)(Cl)Cl)OCCO2)cc1`, the cell number change came to 15.9%. Moreover, the AC50 under setting [2] is 0.651 µM [rising, full curve, poor fit].
`O=C(CSc1nc2ccccc2c(=O)[nH]1)c1ccc(O)cc1O`: the cell number change worked out at 24.9%. Besides, the AC50 under setting [1] is 4.11 µM [falling, partial curve, poor fit].
For the molecule `C[C@]12CC[C@@H]3c4ccc(OC(=O)c5ccccc5)cc4CC[C@H]3[C@@H]1CC[C@@H]2O`, the cell number change is -49.3%. Besides, under setting [2], the AC50 was 29.1 µM [falling, single point]. Further, under setting [1], the AC50 was 23.1 µM [falling, partial curve].
As to `CN(C(=O)COC(=O)C1CCN(S(=O)(=O)c2c(Cl)cccc2Cl)CC1)c1ccccc1`, the cell number change was 75.5%.
For the molecule `Cc1ccc(-c2nnc(N3CCCCC3)c3ccccc23)cc1S(=O)(=O)NCC1CCCO1` (configuration not stated), the cell number change was found to be 1.53%.
Consider `Cc1cccc(N2CCN(C(=O)c3cccc(N4CCCC4=O)c3)CC2)c1C`, for which the AC50 under setting [1] is 29.1 µM [rising, single point].
`CC1CC(NC(=O)Cc2ccc(Br)cc2)CC(C)(C)C1` (configuration not stated): the cell number change was -24.5%. The AC50 under setting [1] was 29.1 µM [falling, single point].
For the molecule `Cc1ccc(NC(=S)Nc2cccnc2)c(S(=O)(=O)N2CCCCC2)c1`, the cell number change was -1.56%. Further, the AC50 under setting [2] was 0.461 µM [rising, single point].

A word on the AC50: it is the midpoint of the concentration-response curve, whichever way the signal moves.
